Values quoted from earlier work, collected in patent publication US8192749B2, “Methods of simultaneously treating ocular rosacea and acne rosacea” (priority 2003, dated 2012).
For at least one compound, name, drawing or mass did not settle the structure.

Conditions: based on steady-state pharmacokinetics; cited from earlier work

Row | SMILES | plasma antibiotic threshold level [µg/mL]
1 | C[C@H]1c2cccc(O)c2C(=O)C2=C(O)[C@]3(O)C(=O)C(C(N)=O)=C(O)[C@@H](N(C)C)[C@@H]3[C@@H](O)[C@@H]21 [Doxycycline, 6α-deoxy-5-hydroxytetracycline, reference compound] | 1.0
2 | CN(C)c1ccc(O)c2c1C[C@H]1C[C@H]3[C@H](N(C)C)C(O)=C(C(N)=O)C(=O)[C@@]3(O)C(O)=C1C2=O [Minocycline, 7-dimethylaminotetracycline] | 0.8
